Results of single-concentration screens

Amino acid sequences for entries named in this document (tags omitted). Residues count along the entry.
UniProt Q8IDJ8, 1-583: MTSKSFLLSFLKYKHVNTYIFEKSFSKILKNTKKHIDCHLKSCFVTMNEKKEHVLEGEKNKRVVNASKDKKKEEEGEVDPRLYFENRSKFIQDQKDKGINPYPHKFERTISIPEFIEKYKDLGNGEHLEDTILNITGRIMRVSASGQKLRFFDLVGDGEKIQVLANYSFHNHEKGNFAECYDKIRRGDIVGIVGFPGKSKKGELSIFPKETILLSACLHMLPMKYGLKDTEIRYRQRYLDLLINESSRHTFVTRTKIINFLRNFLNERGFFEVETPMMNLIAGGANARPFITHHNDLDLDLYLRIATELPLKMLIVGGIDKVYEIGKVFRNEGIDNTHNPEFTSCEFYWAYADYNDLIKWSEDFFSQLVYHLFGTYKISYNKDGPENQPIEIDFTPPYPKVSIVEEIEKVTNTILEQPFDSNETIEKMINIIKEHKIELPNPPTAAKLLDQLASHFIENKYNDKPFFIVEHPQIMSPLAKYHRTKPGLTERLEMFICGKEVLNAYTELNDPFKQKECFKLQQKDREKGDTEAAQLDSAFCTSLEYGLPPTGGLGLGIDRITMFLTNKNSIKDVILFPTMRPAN

Measurements from “University of Dundee, Small-Polar-MMV Screening Library” (2021), ChEMBL document CHEMBL3988442.

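Lysine-tRNA ligase, Plasmodium falciparum 3D7 (UniProt Q8IDJ8). Enzyme assay of the cytosolic lysyl-tRNA synthetase in 384-well plates, read by luminescence. Tested at 30 µM. Higher reads as stronger inhibition, judged from the few compounds that gave an IC50. Size under these conditions: about 69,000 compounds, about 49 of them at 50% or above in at least one test.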

Each number is a percent effect as filed. How 0% and 100% were set is not recorded. Most values in the screen are low, and negative values occur. The compounds are a random part of those screened.

SMILES | Percent Effect
CN(C)C(=O)CN1CCC(c2c(C(N)=O)sc3ncccc23)C1 (stereo not given) | 2.312
CC(C)(C)n1ncc2c1CCCC2NCc1ccc2c(c1)CCO2 (stereo not given) | -2.482
CSCCC(C)NC(=O)N(C)Cc1cc(Cl)cn1C (stereo not given) | -0.9761
CCc1cc(CNC(=O)N2Cc3ccccc3N(C)CC2C)[nH]n1 (stereo not given) | 1.794
O=c1[nH]nc(CNc2ncc(Br)cn2)[nH]1 | 4.514
COc1cccc(CN2C[C@@H]3COC[C@]3(COc3cccnc3)C2)c1 | 9.511
NC(=O)c1ccc(CNCC2CCN(CCO)CC2)cc1 | 5.557
Cc1ccc(C(=O)NC(CN2CCCC2=O)c2ccccc2)cn1 (stereo not given) | -0.6091
COc1ccc(NCc2nc(=O)n(CCC(C)C)[nH]2)cc1 | 8.091
CCNc1cc2c(nn1)CCN(C(=O)c1ccc(-n3cccn3)nc1)C2 | 5.292
COc1c(C(=O)NCc2cnn(C)c2C)nnn1Cc1ccccc1 | -1.978
CCOc1ccc(SCCS(=O)(=O)CC)cc1 | 0.2347
CCN(CC)c1ccc(CNC(=O)c2cnccn2)cn1 | 2.514
Cc1noc(C)c1CNC(=O)N1CCC(C(O)c2ccccc2)CC1 (stereo not given) | -3.304
COCCCSc1ccc(NCc2ccc(C)cn2)cc1 | 5.364
NCC1(c2cccc(F)c2)CCOCC1 | -3.987
C=C(C)C(=O)N1CCC(C(=O)c2cc(C)cnc2N)CC1 | 2.562
Cc1cc(-c2ccc(=O)n(C3CCN(C(=O)C4CC4)CC3)n2)c(C)o1 | 3.53
O=C(c1ccc2sccc2c1)N1CCC(C(=O)O)(n2cccn2)CC1 | 1.224
Cc1cc(F)ccc1S(=O)(=O)N(C)CC(N)=O | 1.329
Cn1ncnc1CNC1CCCc2cc(F)ccc21 (stereo not given) | -3.787
COCCn1cc2c(n1)C(CNCc1ccco1)OCC2 (stereo not given) | 2.878
COc1ccccc1-n1cc(C(=O)NCCCn2ccnn2)cn1 | 10.28
CCOCCOC(C)C(=O)Nc1ccc2c(ccn2CC)c1 (stereo not given) | 9.873
Cc1nc(CN2CC(CCCc3ccccn3)(C(=O)N(C)C)C2)co1 | -1.128
COc1ncccc1CN1C[C@@H]2COC[C@]2(COc2cccnc2)C1 | 7.64
COCC1COCCC12CCN(C(=O)CCc1ccccc1C)CC2 (stereo not given) | -6.865
O=C(c1ccco1)N1C[C@H]2CCCN(Cc3ccncc3)[C@H]2C1 | 3.673
Cn1cc(CC2CCN(C(=O)NCc3csc(C4CC4)n3)C2)cn1 (stereo not given) | -0.8055
CC(C)(C)C(=O)N1C[C@H](c2ccsc2)[C@H]2CN(C3CCCC3)CC[C@H]21 | 4.5
Cc1ccc(NC(=O)CS(=O)(=O)NC2CCC(C)CC2)nc1 (stereo not given) | -1.398
CCN(CC)CCNC(=O)C(C)OCC(F)(F)F (stereo not given) | -1.602
CCN(Cc1nnnn1C1CC1)c1cc(C)ccc1C | 0.9918
COc1ccc(CN2CCn3cccc3C2C)cc1F (stereo not given) | 5.055
CC(C)NC(=O)N1CCCC(c2nnc(CN3CCOCC3)n2C)C1 (stereo not given) | 9.014
CN(Cc1ccccn1)C(=O)Nc1cc(C(F)(F)F)c[nH]c1=O | 6.18
CC(C)N1c2sc(-c3ccccc3)nc2CC1C(=O)NCCCO (stereo not given) | 2.846
Cc1cccc(N2CC[C@H]3CO[C@H](CN(C)Cc4ccco4)[C@H]3C2)n1 | 0.3431
O=C(NCc1ccnc(O)c1)NCC1CCCC1 | 9.479
Cc1nc(-c2ccc(F)c(F)c2)cc(C2CCNCC2)n1 | 2.232
CN(Cc1ccncc1)C(=O)c1ccc2c(c1O)OC(C)(C)C2 | 7.164
CCc1oc(C(=O)N2CCC(N(CC)C(C)=O)C2)cc1CN(CC)CC (stereo not given) | 7.405
N#Cc1cccc(C(=O)N2CCc3ncc(Cn4cccn4)n3CC2)c1 | 1.804
CCc1cc(NCC(O)CN2CCCC2)ncn1 (stereo not given) | 3.442
CN(Cc1ccco1)[C@@H]1CN(Cc2nccs2)C[C@@H]2CCCO[C@@H]21 | 1.644
c1ccc(C2CCCN(Cc3cc4n(n3)CCNC4)CC2)cc1 (stereo not given) | 1.317
O=S(=O)(c1ccc(Cl)s1)N1CCN(Cc2nc(-c3ccco3)cs2)CC1 | 4.301

4 of the entries, repeated:

| SMILES | Percent Effect |
|---|---|
| `O=C(c1ccco1)N1C[C@H]2CCCN(Cc3ccncc3)[C@H]2C1` | 3.673 |
| `CCNc1cc2c(nn1)CCN(C(=O)c1ccc(-n3cccn3)nc1)C2` | 5.292 |
| `Cn1cc(CC2CCN(C(=O)NCc3csc(C4CC4)n3)C2)cn1` (stereo not given) | -0.8055 |
| `CC(C)NC(=O)N1CCCC(c2nnc(CN3CCOCC3)n2C)C1` (stereo not given) | 9.014 |